We go through one molecule from PMC3753647.

Substrate in this experiment: T1, S subunit of the EcoKI MTase tagged with EGFP and a hexa-Histidine tag (UniProt P05719)
T1 sequence: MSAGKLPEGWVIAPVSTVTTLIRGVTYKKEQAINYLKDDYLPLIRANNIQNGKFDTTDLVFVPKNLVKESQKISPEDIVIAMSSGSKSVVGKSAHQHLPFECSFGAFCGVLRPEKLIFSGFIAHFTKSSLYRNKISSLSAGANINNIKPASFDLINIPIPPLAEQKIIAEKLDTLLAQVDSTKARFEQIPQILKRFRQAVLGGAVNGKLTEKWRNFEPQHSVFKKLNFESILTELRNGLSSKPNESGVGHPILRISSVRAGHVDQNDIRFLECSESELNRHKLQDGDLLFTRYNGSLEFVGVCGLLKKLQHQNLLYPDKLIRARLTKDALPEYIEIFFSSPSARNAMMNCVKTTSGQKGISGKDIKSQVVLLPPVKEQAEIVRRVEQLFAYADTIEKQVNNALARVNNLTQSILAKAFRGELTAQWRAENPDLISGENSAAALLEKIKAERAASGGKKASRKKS
Briefly: co-purification with SDS-PAGE; EcoKI MTase preparation with EGFP-His-tagged S subunit shown on SDS-PAGE for comparison; its preparation is not told here (ref. 14).

Results are given in words; binding and its absence hold for the method and conditions named. Some results given as binding are weak or reduced against the parent protein; the word gives no strength. Where a sequence is shown, tags or fusion partners need not be part of it.

B1: M subunit of the EcoKI MTase (protein, UniProt P08957 1-529)
chain: MNNNDLVAKLWKLCDNLRDGGVSYQNYVNELASLLFLKMCKETGQEAEYLPEGYRWDDLKSRIGQEQLQFYRKMLVHLGEDDKKLVQAVFHNVSTTITEPKQITALVSNMDSLDWYNGAHGKSRDDFGDMYEGLLQKNANETKSGAGQYFTPRPLIKTIIHLLKPQPREVVQDPAAGTAGFLIEADRYVKSQTNDLDDLDGDTQDFQIHRAFIGLELVPGTRRLALMNCLLHDIEGNLDHGGAIRLGNTLGSDGENLPKAHIVATNPPFGSAAGTNITRTFVHPTSNKQLCFMQHIIETLHPGGRAAVVVPDNVLFEGGKGTDIRRDLMDKCHLHTILRLPTGIFYAQGVKTNVLFFTKGTVANPNQDKNCTDDVWVYDLRTNMPSFGKRTPFTDEHLQPFERVYGEDPHGLSPRTEGEWSFNAEETEVADSEENKNTDQHLATSRWRKFSREWIRTAKSDSLDISWLKDKDSIDADSLPEPDVLAAEAMGELVQALSELDALMRELGASDEADLQRQLLEEAFGGVKE
Regarding B1, the binding entry is “binds”.
